Results on 27 molecules are retold here after patent publication US20200299612A1, “HIGH PERFORMING, HIGH IMPACT BLOOM ACCORD” (International Flavors & Fragrances Inc., priority 2016, published 2020).

A short description of one series: Experimental velocity of single fragrance ingredients (60 cm divided by time to olfactory detection) from model powder detergent in water. The note with it: Table 1, Class 1 ingredients, 10 g model powder detergent in 2 liters of water, 25° C.
For the molecule `CC/C=C\CCCCC=O` [cis 6-nonen-1-al], the “EV (Experimental velocity)” value turned out to be 13 cm/s.

On to `CCCCCCCCCC=O` [decanal], for which the “EV (Experimental velocity)” value was 9 cm/s.

For `CCOC(=O)C(C)CC` (stereo not drawn) [ethyl 2-methylbutanoate], the “EV (Experimental velocity)” value is 12 cm/s.

Take `CCCC(C)C(=O)OCC` (stereo not drawn) [ethyl 2-methylpentanoate]: the “EV (Experimental velocity)” value amounted to 9 cm/s.

In the case of `CCCCCC(=O)OCC` [ethyl hexanoate], the “EV (Experimental velocity)” value came to 10 cm/s.

Take `CCCCCCC=O` [heptanal]: the “EV (Experimental velocity)” value was found to be 10 cm/s.

Turning to `COC(=O)c1ccccc1N` [methyl 2-aminobenzoate], the “EV (Experimental velocity)” value came out at 9 cm/s.

With `CCCCCCCCC=O` [nonanal], the “EV (Experimental velocity)” value was 13 cm/s.

Regarding `c1ccc(Oc2ccccc2)cc1` [oxydibenzene], the “EV (Experimental velocity)” value is recorded as 14 cm/s.

The series is the same for the next values; noted with them: Table 2, Class 2 ingredients, 10 g model powder detergent in 2 liters of water, 25° C.
With `C/C=C/CCCCCCCC=O` [(E)-undec-9-enal], the “EV (Experimental velocity)” value is given as 7 cm/s.

Consider `CC/C=C\CCOC(=O)OC` [(Z)-hex-3-en-1-yl methyl carbonate], for which the “EV (Experimental velocity)” value stood at 7 cm/s.

As to `c1ccc2[nH]ccc2c1` [Accord 1H-indole, 1H-indole], the “EV (Experimental velocity)” value was found to be 6 cm/s.

For the molecule `CCCCCCC=CC=O` [Accord 2-nonenal, 2-nonenal], the “EV (Experimental velocity)” value stood at 6 cm/s.

`O=CC=Cc1ccccc1` [cinnamaldehyde]: the “EV (Experimental velocity)” value was 7 cm/s.

Turning to `CCCCCCCCCCCC=O` [dodecanal], the “EV (Experimental velocity)” value was 6 cm/s.

In the case of `CCCCCCCCCCCC#N` [dodecanenitrile], the “EV (Experimental velocity)” value amounted to 6 cm/s.

As to `CCOC(=O)C(C)C` [ethyl isobutyrate], the “EV (Experimental velocity)” value was 5 cm/s.

`CCCCCC=O` [hexanal]: the “EV (Experimental velocity)” value came out at 5 cm/s.

For the molecule `COC(=O)c1ccccc1C` [methyl 2-methylbenzoate], the “EV (Experimental velocity)” value turned out to be 7 cm/s.

For `CCCCCCCC=O` [octanal], the “EV (Experimental velocity)” value is 8 cm/s.

For the molecule `CC(=O)Oc1ccc(C)cc1` [p-tolyl acetate], the “EV (Experimental velocity)” value came to 6 cm/s.

Turning to `CC1=CCC(C(C)(C)S)CC1` (stereo not drawn) [para menth-1-ene-8-thiol], the “EV (Experimental velocity)” value is listed as 6 cm/s.

`CC(C)C1CCC(CS)C(S)C1` (stereo not drawn) [para menthane-2,7-dithiol]: the “EV (Experimental velocity)” value was 5 cm/s.

Consider `CC(=O)OCCc1ccccc1` [phenyl ethyl acetate], for which the “EV (Experimental velocity)” value was 7 cm/s.

As to `CCCCC/C=C/CCC=O` [trans 4-decen-1-al], the “EV (Experimental velocity)” value was 8 cm/s.

Turning to `CCCCCCCCC/C=C/C=O` [trans-2-dodecanal], the “EV (Experimental velocity)” value was 6 cm/s.

Consider `CCCCCCCCCCC=O` [undecanal], for which the “EV (Experimental velocity)” value came to 6 cm/s.
